In all, about 78,000 compounds went through this assay and about 1,800 (2.3%) were called active. The inconclusive results got no clear call from the source; some entries with a clear call stand among them for comparison. Cut-off read from the data, not from the text of the source: active = inhibition above about 30%; inconclusive = mostly about 10% to 28%; inactive = weaker than that.
Target: Interleukin-1 receptor-like 1 (Homo sapiens) (UniProt Q01638)
Test: blocks human ST2 binding to IL-33, primary screen, biochemical, AlphaLISA (AID 1259354)
Settings: AlphaLISA ST2-Fc/biotin-IL-33 interaction, 1 h; at 17 µM, active compounds read high

Chains of the proteins cited; added tags and fusions are not shown. Lines headed by an entry give the natural chain unless they say otherwise; changes in a name come on top.
UniProt Q01638: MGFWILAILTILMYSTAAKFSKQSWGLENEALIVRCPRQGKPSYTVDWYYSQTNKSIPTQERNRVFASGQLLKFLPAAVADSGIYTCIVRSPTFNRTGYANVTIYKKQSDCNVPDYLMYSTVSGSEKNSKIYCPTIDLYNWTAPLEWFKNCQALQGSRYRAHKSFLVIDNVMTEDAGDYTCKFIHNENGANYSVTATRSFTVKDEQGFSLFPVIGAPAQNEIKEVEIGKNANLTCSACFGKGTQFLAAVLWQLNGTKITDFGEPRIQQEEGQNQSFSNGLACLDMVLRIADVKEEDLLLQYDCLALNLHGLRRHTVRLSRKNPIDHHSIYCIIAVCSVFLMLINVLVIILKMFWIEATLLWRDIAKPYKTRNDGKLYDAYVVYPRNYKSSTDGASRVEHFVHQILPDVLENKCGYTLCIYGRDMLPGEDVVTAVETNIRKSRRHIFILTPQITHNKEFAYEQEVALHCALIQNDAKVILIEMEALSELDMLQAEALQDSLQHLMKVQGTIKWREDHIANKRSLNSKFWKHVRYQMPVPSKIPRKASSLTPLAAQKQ

Compound | inhibition
COc1cc2c(cc1OC)C(C(=O)Nc1cc(C)on1)C(c1ccccc1F)N(C)C2=O (stereo not drawn) | inconclusive: 13%
COc1ccc(OCc2ccc(F)cc2)c(/C=C2\C(=O)NN(c3ccccc3)C2=O)c1 | inactive
COc1ccc(CCNC(=O)C(C)Oc2ccc(Cl)cc2Cl)cc1OC (stereo not drawn) | inactive
Cc1nc2ccc3nc(NC(=O)c4cc(=O)c5ccccc5o4)sc3c2s1 | inactive
CCn1cc(C(=O)N2CC(C)CC(C)C2)c2cc(OC)c(OC)cc2c1=O (stereo not drawn) | inactive
CCN(CC)CCN(C)Cc1cc(I)c(O)c(OC)c1 | active: 94%
Cc1cc(Br)ccc1N1C(=O)Nc2ccccc2N1O | inconclusive: 23%
N#CC1=C([S-])N[C@@](O)(c2ccccc2)[C@H]([n+]2ccc3ccccc3c2)[C@H]1c1ccncc1 | inconclusive: 13%
COC(=O)c1c(NC(=O)COc2ccc(C(C)(C)C)cc2)sc2c1C(C(=O)OC)CC2 (stereo not drawn) | inconclusive: 10%
N#Cc1cc2c(=O)n3ccccc3nc2n(CCCn2ccnc2)c1=N | active: 31%
N#Cc1cccc(N=c2oc3ccccc3cc2C(=O)Nc2ccccc2)c1 | inconclusive: 20%
Cc1noc(C)c1S(=O)(=O)N1CCN(c2cc(-c3cccc(F)c3)ncn2)CC1 | inactive
Cc1ccc(NC(=O)CCS(=O)(=O)c2cccc3nsnc23)cc1Cl | inconclusive: 13%
Cc1n[nH]c(C)c1Sc1ccccc1-n1cnnc1 | inconclusive: 12%
Cn1c(=O)[nH]c(=O)c2c1nc(NCCCO)n2CCc1ccccc1 | inconclusive: 15%
COc1ncccc1C(=O)NC1CC(=O)N(CCCc2ccccc2)C1 (stereo not drawn) | inconclusive: 10%
COc1ccc(OCc2nc(C#N)c(NCCc3ccccc3)o2)cc1 | inconclusive: 28%
Cc1cccc(NC(=O)c2ccc([N+](=O)[O-])o2)c1 | active: 42%
COC(=O)c1c(NS(=O)(=O)c2ccc(C)cc2)sc(C)c1C | inactive
CCOC(=O)C1CCN(c2ncnc(N)c2[N+](=O)[O-])CC1 | inactive
O=C(Nc1nc(-c2ccc(Oc3ccccc3)cc2)cs1)C1CC1 | inconclusive: 15%
CN(C)c1nc2nonc2nc1NC1CCC1 | inconclusive: 16%
Cc1cc(=O)oc2cc(OCC(=O)Nc3ccc(Cl)cc3)ccc12 | inconclusive: 19%
CCC(C)OC(=O)C1=C(C)NC2=C(C(=O)CC(C)(C)C2)C1c1ccccc1Br (stereo not drawn) | inconclusive: 14%

Compound | inhibition
CCc1cccc(C)c1NC(=O)c1ccc(-c2ccc(Cl)cc2)o1 | inactive
CCc1csc(CNC(=O)C(C)n2cnc3ccccc32)n1 (stereo not drawn) | inconclusive: 15%
OC[C@H]1O[C@@H](n2cnc3cncnc32)[C@H](O)[C@@H]1O | inconclusive: 16%
CCCc1nc2nc[nH]n2c(=O)c1NC(=O)Nc1ccc(C)c(C)c1 | inconclusive: 10%
COc1ccc(C(O)=C2C(=O)C(=O)N(CCCN3CCOCC3)C2c2cccs2)cc1OC (stereo not drawn) | inactive
COc1ccc(C(=O)NCCn2cc(SCC(=O)Nc3ccccc3F)c3ccccc32)cc1 | inconclusive: 11%
Oc1c(Cl)cc(Br)cc1C=Nc1ccc2c(c1)OCCO2 | inconclusive: 14%
O=C(O)COc1ccc2occ(C(=O)c3cccs3)c2c1 | inactive
CCOc1ccc(C(=O)N2CCN=C2SCc2cccnc2)cc1 | inconclusive: 17%
CC(=O)c1ccc(F)cc1-c1cc(N)nc2[nH]ccc12 | inconclusive: 10%
COc1ccccc1C1CCCN1C(=O)C1CCCN(c2nc(C)c3ccc(C)cc3n2)C1 (stereo not drawn) | inconclusive: 13%
CC(C)NC(=O)c1ccc2c(c1)ncn2C1CCCC1 | inconclusive: 15%
COc1cccc2sc(N3CCCC3)nc12 | inconclusive: 14%
O=C(c1coc(COc2cccc3cccnc23)n1)N1CC[C@@H]2CCCC[C@H]2C1 | inconclusive: 13%
COc1ccc(CN2CC[C@H](c3nc4c(C(N)=O)cccc4[nH]3)C2)cc1 | inconclusive: 20%
CC1C2NC(=O)N(CCc3ccccc3)C1(C)Oc1ccc(Br)cc12 (stereo not drawn) | inactive
CCN/C(C)=C/c1nsc(Nc2ccc(Cl)c(Cl)c2)n1 | inactive
CCn1cc(CNc2nccc(CCC(F)(F)F)n2)cn1 | inconclusive: 22%
Cc1cc(C)c(NS(=O)(=O)c2ccc3c4c(cccc24)C(=O)N3)c(C)c1 | inactive
CCOC(=O)CC1CCCCN1C(=O)c1ccc2nc(-c3cccc(OC)c3)oc2c1 (stereo not drawn) | inactive
CN(Cc1ccc2ccccc2n1)C(=O)c1cn(Cc2ccc(F)cc2Cl)nn1 | inactive
O=C(NCc1cccs1)c1ccc(CS(=O)(=O)c2ccc(Cl)cc2)o1 | inconclusive: 12%
CCOC(=O)C1C(=O)C=C(c2ccco2)CC1c1ccc(N(C)C)cc1 (stereo not drawn) | inconclusive: 24%
COc1cc(OC)cc(-c2cc3nc(C)c(CCC(=O)NC(C)c4cccs4)c(C)n3n2)c1 (stereo not drawn) | inactive

An excerpt of these results, field by field.
CCN/C(C)=C/c1nsc(Nc2ccc(Cl)c(Cl)c2)n1
  inhibition: inactive
CCn1cc(CNc2nccc(CCC(F)(F)F)n2)cn1
  inhibition: inconclusive: 22%
Cc1cc(C)c(NS(=O)(=O)c2ccc3c4c(cccc24)C(=O)N3)c(C)c1
  inhibition: inactive

Continued.

Compound | inhibition
COc1ccc(C2=NN(C(=O)c3ccccc3Cl)C(c3cccc([N+](=O)[O-])c3)C2)cc1 (stereo not drawn) | inconclusive: 13%
NNC(=O)CCc1ccccc1O | inconclusive: 17%
Cc1cccc2cc(CC3CC(c4ccccc4)=NN3C(=O)CCCC(=O)O)c(Cl)nc12 (stereo not drawn) | inconclusive: 17%
Cc1cccc(NC(=O)CN(c2ccc(I)cc2)S(C)(=O)=O)c1 | inconclusive: 13%
CCCNC(=O)CSCc1nc(-c2ccc(SC)cc2)oc1C | inconclusive: 18%
C=CCn1cc(C(=O)N(CCC)CCC)c(=O)c2cc(S(=O)(=O)N3CCC(C)CC3)ccc21 | inconclusive: 14%
OC[C@H]1CCN(Cc2ccc(Oc3ccc(Cl)cc3)cc2)C[C@H]1O | inconclusive: 16%
Cc1ccc(Sc2c(C)nn(C(=O)c3ccc([N+](=O)[O-])cc3)c2C)cc1 | active: 60%
CC(NC(=O)c1cccc(-n2cccn2)c1)c1nnc2n1CCNCC2 (stereo not drawn) | inactive
COc1ccc(-c2cc(C(=O)Nc3ccc([N+](=O)[O-])cc3OC)c3ccccc3n2)c(OC)c1 | inactive
c1cc(-c2nc3ccccc3[nH]2)nc(-c2nc3ccccc3[nH]2)c1 | inconclusive: 11%
COc1ccc(-c2cc(N3CCN(S(=O)(=O)c4ccc(Br)cc4)CC3)ncn2)cc1 | inconclusive: 14%
COc1ccc(-c2nnc(Nc3nc4c(F)cccc4s3)o2)cc1 | inactive
C[C@H](C(=O)N1CCOCC1)C1CC[C@@]2(C)Cc3sc(CS(=O)(=O)C(C)(C)C)nc3[C@@H](C)[C@@H]2[C@H]1O (stereo partly drawn) | inconclusive: 18%
COc1ccc(S(=O)(=O)NCCSc2ccccn2)cc1Br | inactive
CN1CCN(c2nc3c(c(=O)n(C)c(=O)n3C)n2Cc2ccc(Cl)cc2Cl)CC1 | inactive
CSc1ccc(-c2nc(CSCC(=O)NCc3cccnc3)c(C)o2)cc1 | inconclusive: 15%
Cc1cccn2cc(COc3cccc([N+](=O)[O-])c3)nc12 | inconclusive: 27%
O=c1ccn(-c2ccccc2)[nH]1 | inactive
Cc1nc(Cl)c(Cl)n1CC(=O)Nc1cc(-c2ccccn2)nn1C | inconclusive: 20%
CN(C)CCNC(=O)C[C@@H]1O[C@H](CNC(=O)c2ccco2)[C@@H](O)[C@H]1O | inconclusive: 11%
CC(C)Cc1cc(C(=O)NC(C)c2ccccc2)no1 (stereo not drawn) | inactive
Cc1ccc(OCC(=O)Nc2ccc3nn(-c4ccc(Cl)cc4)nc3c2)cc1 | inconclusive: 22%
CCOc1ccc(NC2=NC3CS(=O)(=O)CC3S2)cc1 (stereo not drawn) | inactive

Compound | inhibition
COc1ccc(OC)c(NC(=O)NCCc2nc3cccnc3n2-c2ccccc2)c1 | inconclusive: 15%
Cc1ccccc1-c1c(C)oc2c(CN(C)C)c(O)ccc2c1=O | inconclusive: 12%
O=C(Nc1ccccc1[N+](=O)[O-])c1cnc2n(c1=O)CCS2 | inactive
O=C(NC[C@H]1O[C@@H](CO)[C@@H](O)[C@H]1N1CCN(c2cccc(C(F)(F)F)c2)CC1)c1ccco1 | inconclusive: 10%
Cc1sc2c(c1C)c(=O)n(-c1ccc(Cl)c(Cl)c1)c(=O)n2CC(N)=O | inconclusive: 14%
CN(C)c1ccc(C(=O)NC[C@H]2O[C@@H](CO)[C@@H](O)[C@H]2N2CCN(c3ccc(F)cc3)CC2)cc1 | inactive
Cc1cccc(N2C(=O)C3C4C=CC(O4)C3C2=O)c1C (stereo not drawn) | inactive
COc1cccc(Nc2nc3ccccc3nc2NS(=O)(=O)c2ccc(NC(C)=O)cc2)c1 | active: 37%
CCC(C)(C)C1CCc2[nH]nc(C(=O)NN)c2C1 (stereo not drawn) | inconclusive: 13%
Cn1ccnc1-c1c(-c2ccccc2)ncn1CC1CNCCO1 (stereo not drawn) | inactive
Cc1ccc2nc(-c3ccc(Br)cc3)cc(C(=O)O)c2c1 | inconclusive: 12%
O=C1[C@H]2C3c4ccccc4C(CO)(c4ccccc43)[C@H]2C(=O)N1c1ccc(Cl)cc1 | inconclusive: 10%
COc1ccc(C(=O)N2C[C@@H]3C[C@H](C2)c2c(-c4ccc(NC(C)=O)cc4)ccc(=O)n2C3)cc1 | inconclusive: 16%
COc1cccc(C2C(C(N)=O)=C(C)Nc3nc(SCc4ccccc4)nn32)c1 (stereo not drawn) | inconclusive: 16%
CCC(C)NC(=O)Cn1c2ccccc2c(=O)c2ccccc21 (stereo not drawn) | inconclusive: 20%
COc1ccc(OC)c(/C=C2/SC(N3CCCC3)=NC2=O)c1 | inconclusive: 12%
O=C(CCCCc1ccccc1)N1CCCn2cncc2C1 | inactive
O=C(O)C1CSC(c2ccc(OCc3ccc(Cl)cc3)cc2)N1 (stereo not drawn) | inactive
C=CCOc1ccccc1CN1CCCCC1 | inconclusive: 15%
COc1ccc(-c2oc3cc(O)c(OC)c(O)c3c(=O)c2OC)cc1 | inconclusive: 10%
O=C(NCCCCNc1ccc(C(F)(F)F)cc1[N+](=O)[O-])c1ccc(Cl)cc1 | inconclusive: 20%
